{"source": "the supplement of paper PMC5949888", "note": "Most values lie at the floor of the assay. Slopes are relative: functional sequences can read slightly below zero.", "data": [{"system": "Saccharomyces cerevisiae PS128 hsf1 delta, HSF1(1-493) fusion", "experiment": "growth estimate (transactivation domain function in HSF1 fusion, heat-shock survival) (a.u. (slope of normalised read count over time)); higher = stronger growth at 37°C, i.e. more transactivation activity", "conditions": "library: random library", "method": "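Random 60-nt DNA library encoding peptides of up to 20 aa, fused to the C-terminus of yeast HSF1 residues 1-493 (C-terminal TAD deleted) and expressed from the native HSF1 promoter on a CEN plasmid in hsf1-deleted S. cerevisiae PS128. Cells were selected at 37°C on -trp 5-FOA plates for 0, 2, 4, 6 and 8 days and amplicons were sequenced. Growth estimate is the slope of a robust linear fit of total-sum-normalised read counts (normalised to the first time point) over time, using at least 2 replicates. Sequences are classed functional (TAD activity) above a threshold of -0.13, set from stop-codon control sequences.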", "values": [{"substance": "WIFVSAVEDDLLS", "growth estimate": -0.197}, {"substance": "GSIGRESGVRKSGVV", "growth estimate": "< -0.25"}, {"substance": "IPVISNTCIRQ", "growth estimate": "< -0.25"}, {"substance": "HFDKFPHSEA", "growth estimate": "< -0.25"}, {"substance": "FACGILLSD", "growth estimate": "< -0.25"}, {"substance": "RKGVDRAPTSAERRIKIELE", "growth estimate": -0.0864}, {"substance": "LRSGLKRVLRVLALTASSRP", "growth estimate": "< -0.25"}, {"substance": "PGAIARDVWTVKCVTMPGSK", "growth estimate": "< -0.25"}, {"substance": "PGLLPHVGETDCYLVRFRIL", "growth estimate": "< -0.25"}, {"substance": "RSSPEMAMEPAPDTNFLSTR", "growth estimate": "< -0.25"}, {"substance": "WTAGVNEMGTCYQLPSRILS", "growth estimate": "< -0.25"}, {"substance": "SLNSRTTGARRSMVVCAASG", "growth estimate": "< -0.25"}, {"substance": "EIRYSEMY", "growth estimate": -0.126}, {"substance": "TGYITKVLPFLMVL", "growth estimate": "< -0.25"}, {"substance": "RCIL", "growth estimate": "< -0.25"}, {"substance": "YLSANVIQRIQFSRPLPSQG", "growth estimate": "< -0.25"}, {"substance": "GHENC", "growth estimate": "< -0.25"}, {"substance": "IATLDPGEHFYPRTNKHEGL", "growth estimate": "< -0.25"}, {"substance": "TDPRVQGI", "growth estimate": "< -0.25"}, {"substance": "QLGS", "growth estimate": "< -0.25"}, {"substance": "SPLILFKHVLDWKSRW", "growth estimate": "< -0.25"}, {"substance": "VELRGPQALQVI", "growth estimate": "< -0.25"}, {"substance": "RLLFPNSPSG", "growth estimate": "< -0.25"}, {"substance": "LCDQRAGGFRECCF", "growth estimate": -0.246}, {"substance": "PES", "growth estimate": "< -0.25"}, {"substance": "RCFVFTMCHGGNRTLWMCAD", "growth estimate": "< -0.25"}, {"substance": "RLNAVTMLCSASTPVCGILR", "growth estimate": "< -0.25"}, {"substance": "PHYWKRSEEHVRAAFEQCFI", "growth estimate": "< -0.25"}, {"substance": "TLEQEMGRETNIM", "growth estimate": "< -0.25"}, {"substance": "RWLPTRGRTGGQTTLGKLAP", "growth estimate": "< -0.25"}, {"substance": "SCWEP", "growth estimate": "< -0.25"}, {"substance": "KHSSDDSGPAYG", "growth estimate": "< -0.25"}, {"substance": "RCPAENEAQA", "growth estimate": "< -0.25"}, {"substance": "IRHAGHGPGAWIGQRPCNVG", "growth estimate": "< -0.25"}, {"substance": "SGENRIGPRDNGVLVRYRAR", "growth estimate": "< -0.25"}, {"substance": "DCIITLSRSQRKTWRP", "growth estimate": "< -0.25"}, {"substance": "LKRVADFNACVKGWDEQVRG", "growth estimate": "< -0.25"}, {"substance": "TIPKKVLREGWPVRTVLPRH", "growth estimate": "< -0.25"}, {"substance": "RDTSRVDLMSHLSARNLVSV", "growth estimate": "< -0.25"}, {"substance": "TRWPDSFRYRLVGRIQPRRY", "growth estimate": "< -0.25"}, {"substance": "DSSAHRW", "growth estimate": "< -0.25"}, {"substance": "FCL", "growth estimate": "< -0.25"}, {"substance": "VQKALSKLSSSEMDRT", "growth estimate": "< -0.25"}, {"substance": "RNCTGNRSRGIRAFFADLGP", "growth estimate": "< -0.25"}, {"substance": "VGAVDCCGEGG", "growth estimate": "< -0.25"}, {"substance": "HGLSRDRRNHLRLLFFPIHV", "growth estimate": "< -0.25"}, {"substance": "SGIRLTDRPTMNSDKGQTIP", "growth estimate": "< -0.25"}, {"substance": "DFVGL", "growth estimate": "< -0.25"}, {"substance": "GGSKGR", "growth estimate": -0.246}, {"substance": "TTNVISVGW", "growth estimate": "< -0.25"}, {"substance": "GLLFV", "growth estimate": "< -0.25"}, {"substance": "CAAFSQETSSLRASPRVTSK", "growth estimate": "< -0.25"}, {"substance": "QTIGPPTQKVGGGSYPPVES", "growth estimate": "< -0.25"}, {"substance": "MPQ", "growth estimate": "< -0.25"}, {"substance": "LGSRVHTATTAQAPGKGEYG", "growth estimate": "< -0.25"}, {"substance": "LRQDGDFCSQFSYGRAVIII", "growth estimate": "< -0.25"}, {"substance": "GIMWFDKFERWLRELNLVG", "growth estimate": -0.246}, {"substance": "CRLMTLRRALTGCFRGPLVP", "growth estimate": "< -0.25"}, {"substance": "LSRRSIVLRGPRR", "growth estimate": "< -0.25"}, {"substance": "TTHLSEE", "growth estimate": "< -0.25"}, {"substance": "SQIRRLGLINYCMNFSRHLL", "growth estimate": "< -0.25"}, {"substance": "LKDWICLLRSKRRSHILNRF", "growth estimate": "< -0.25"}, {"substance": "HPGLIFLMHDRLGNERHEHY", "growth estimate": "< -0.25"}, {"substance": "SSTQKKRLKKFCVQVYGLPV", "growth estimate": "< -0.25"}, {"substance": "GVLWSLSNSGTVDAFYVNCV", "growth estimate": "< -0.25"}, {"substance": "GVVSAAPPSPSAHYYRVHQL", "growth estimate": "< -0.25"}, {"substance": "KMSRCISV", "growth estimate": "< -0.25"}, {"substance": "SPSNGPHLILLSESPVEHAR", "growth estimate": "< -0.25"}, {"substance": "LYCTSP", "growth estimate": "< -0.25"}, {"substance": "SIPASSFPADYVRQA", "growth estimate": "< -0.25"}, {"substance": "QLNVIDRRRRDHSCCNIRVL", "growth estimate": "< -0.25"}, {"substance": "GSLFAPDL", "growth estimate": "< -0.25"}, {"substance": "RPM", "growth estimate": "< -0.25"}, {"substance": "SRPDLRDPSGRRGIRPALKG", "growth estimate": "< -0.25"}, {"substance": "LYTRWQV", "growth estimate": "< -0.25"}, {"substance": "LCSLGFALRLGYILSL", "growth estimate": "< -0.25"}, {"substance": "PEELSESVRYTGRTGVGWES", "growth estimate": "< -0.25"}, {"substance": "PKSPAVSVQSVDLPLTMDWL", "growth estimate": "< -0.25"}, {"substance": "NTRHEPAVPSSLLTLARAPA", "growth estimate": "< -0.25"}, {"substance": "LRSSCDYHVGQF", "growth estimate": "< -0.25"}, {"substance": "RMLHGIGTPVLECEVERTWV", "growth estimate": "< -0.25"}, {"substance": "EGRALLEDRCQ", "growth estimate": "< -0.25"}, {"substance": "PKVTIGHLN", "growth estimate": "< -0.25"}, {"substance": "AIMPGRLEYTNSMG", "growth estimate": "< -0.25"}, {"substance": "LTLPLASASGGWKKRPKGGY", "growth estimate": "< -0.25"}, {"substance": "GRLVGPELRS", "growth estimate": "< -0.25"}, {"substance": "TNVRCAGVSVCHFPWTALAR", "growth estimate": "< -0.25"}, {"substance": "SVGFEIRHSIVPDDHWKSHA", "growth estimate": "< -0.25"}, {"substance": "SPTNL", "growth estimate": "< -0.25"}, {"substance": "SAPEAAALKEEVNSTGHRTL", "growth estimate": "< -0.25"}, {"substance": "TTPHWLRLIVRA", "growth estimate": "< -0.25"}, {"substance": "LEPVGGSV", "growth estimate": -0.0166}, {"substance": "HRA", "growth estimate": "< -0.25"}, {"substance": "CLENMGQ", "growth estimate": "< -0.25"}, {"substance": "QLSGWLGTSSLYFSWRQIRG", "growth estimate": -0.246}, {"substance": "HRICTVTI", "growth estimate": "< -0.25"}]}]}
